{
  "source": "paper doi:10.1101/2020.12.31.424961",
  "key": {"[1]": {"target": "T1, HCoV-229E NSP1, SFB-tagged (HCoV-229E) (UniProt P0C6X1)", "T1 sequence": "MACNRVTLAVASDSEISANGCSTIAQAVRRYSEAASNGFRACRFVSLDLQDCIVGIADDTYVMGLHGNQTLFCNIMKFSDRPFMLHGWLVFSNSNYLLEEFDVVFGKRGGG", "experiment": "affinity purification with mass spectrometry"}, "[2]": {"target": "SARS-CoV-1 NSP1, SFB- or BioID2-tagged (SARS-CoV-1) (UniProt P0C6X7)", "experiment": "affinity purification with mass spectrometry + proximity labelling"}, "[3]": {"target": "SARS-CoV-2 NSP1, SFB- or BioID2-tagged (SARS-CoV-2) (UniProt P0DTD1)", "experiment": "affinity purification with mass spectrometry + proximity labelling"}, "[4]": {"target": "SARS-CoV-2 ORF3a, SFB- or BioID2-tagged (SARS-CoV-2) (UniProt P0DTC3)", "experiment": "affinity purification with mass spectrometry + proximity labelling"}, "[5]": {"target": "SARS-CoV-2 NSP7, SFB- or BioID2-tagged (SARS-CoV-2) (UniProt P0DTD1)", "experiment": "affinity purification with mass spectrometry + proximity labelling"}},
  "note": "Results are given in words; binding and its absence hold for the method and conditions named. Binding seen in cells or lysates may run through a third protein. Here binding means that the protein was enriched with, or labelled near, the bait; the list need not be complete. For some assays here: Tags and fused reporters may be left off the sequences shown.",
  "data": [
    {"binder": "ERCC5 (protein, UniProt P28715 1-1186) MGVQGLWKLLECSGRQVSPEALEGKILAVDISIWLNQALKGVRDRHGNSIENPHLLTLFHRLCKLLFFRIRPIFVFDGDAPLLKKQTLVKRRQRKDLASSDSRKTTEKLLKTFLKRQAIKTAFRSKRDEALPSLTQVRRENDLYVLPPLQEEEKHSSEEEDEKEWQERMNQKQALQEEFFHNPQAIDIESEDFSSLPPEVKHEILTDMKEFTKRRRTLFEAMPEESDDFSQYQLKGLLKKNYLNQHIEHVQKEMNQQHSGHIRRQYEDEGGFLKEVESRRVVSEDTSHYILIKGIQAKTVAEVDSESLPSSSKMHGMSFDVKSSPCEKLKTEKEPDATPPSPRTLLAMQAALLGSSSEEELESENRRQARGRNAPAAVDEGSISPRTLSAIKRALDDDEDVKVCAGDDVQTGGPGAEEMRINSSTENSDEGLKVRDGKGIPFTATLASSSVNSAEEHVASTNEGREPTDSVPKEQMSLVHVGTEAFPISDESMIKDRKDRLPLESAVVRHSDAPGLPNGRELTPASPTCTNSVSKNETHAEVLEQQNELCPYESKFDSSLLSSDDETKCKPNSASEVIGPVSLQETSSIVSVPSEAVDNVENVVSFNAKEHENFLETIQEQQTTESAGQDLISIPKAVEPMEIDSEESESDGSFIEVQSVISDEELQAEFPETSKPPSEQGEEELVGTREGEAPAESESLLRDNSERDDVDGEPQEAEKDAEDSLHEWQDINLEELETLESNLLAQQNSLKAQKQQQERIAATVTGQMFLESQELLRLFGIPYIQAPMEAEAQCAILDLTDQTSGTITDDSDIWLFGARHVYRNFFNKNKFVEYYQYVDFHNQLGLDRNKLINLAYLLGSDYTEGIPTVGCVTAMEILNEFPGHGLEPLLKFSEWWHEAQKNPKIRPNPHDTKVKKKLRTLQLTPGFPNPAVAEAYLKPVVDDSKGSFLWGKPDLDKIREFCQRYFGWNRTKTDESLFPVLKQLDAQQTQLRIDSFFRLAQQEKEDAKRIKSQRLNRAVTCMLRKEKEAAASEIEAVSVAMEKEFELLDKAKGKTQKRGITNTLEESSSLKRKRLSDSKGKNTCGGFLGETCLSESSDGSSSEDAESSSLMNVQRRTAAKEPKTSASDSQNSVKEAPVKNGGATTSSSSDSDDDGGKEKMVLVTARSVFGKKRRKLRRARGRKRKT", "values": [
      {"measurement": "binding", "setting": "[1]", "value": "binds"}
    ]},
    {"binder": "POLA2 (protein, UniProt Q14181 1-598) MSASAQQLAEELQIFGLDCEEALIEKLVELCVQYGQNEEGMVGELIAFCTSTHKVGLTSEILNSFEHEFLSKRLSKARHSTCKDSGHAGARDIVSIQELIEVEEEEEILLNSYTTPSKGSQKRAISTPETPLTKRSVSTRSPHQLLSPSSFSPSATPSQKYNSRSNRGEVVTSFGLAQGVSWSGRGGAGNISLKVLGCPEALTGSYKSMFQKLPDIREVLTCKIEELGSELKEHYKIEAFTPLLAPAQEPVTLLGQIGCDSNGKLNNKSVILEGDREHSSGAQIPVDLSELKEYSLFPGQVVIMEGINTTGRKLVATKLYEGVPLPFYQPTEEDADFEQSMVLVACGPYTTSDSITYDPLLDLIAVINHDRPDVCILFGPFLDAKHEQVENCLLTSPFEDIFKQCLRTIIEGTRSSGSHLVFVPSLRDVHHEPVYPQPPFSYSDLSREDKKQVQFVSEPCSLSINGVIFGLTSTDLLFHLGAEEISSSSGTSDRFSRILKHILTQRSYYPLYPPQEDMAIDYESFYVYAQLPVTPDVLIIPSELRYFVKDVLGCVCVNPGRLTKGQVGGTFARLYLRRPAADGAERQSPCIAVQVVRI", "values": [
      {"measurement": "binding", "setting": "[2]", "value": "binds"},
      {"measurement": "binding", "setting": "[3]", "value": "binds"}
    ]},
    {"binder": "PRIM1 (protein, UniProt P49642 1-420) METFDPTELPELLKLYYRRLFPYSQYYRWLNYGGVIKNYFQHREFSFTLKDDIYIRYQSFNNQSDLEKEMQKMNPYKIDIGAVYSHRPNQHNTVKLGAFQAQEKELVFDIDMTDYDDVRRCCSSADICPKCWTLMTMAIRIIDRALKEDFGFKHRLWVYSGRRGVHCWVCDESVRKLSSAVRSGIVEYLSLVKGGQDVKKKVHLSEKIHPFIRKSINIIKKYFEEYALVNQDILENKESWDKILALVPETIHDELQQSFQKSHNSLQRWEHLKKVASRYQNNIKNDKYGPWLEWEIMLQYCFPRLDINVSKGINHLLKSPFSVHPKTGRISVPIDLQKVDQFDPFTVPTISFICRELDAISTNEEEKEENEAESDVKHRTRDYKKTSLAPYVKVFEHFLENLDKSRKGELLKKSDLQKDF", "values": [
      {"measurement": "binding", "setting": "[2]", "value": "binds"},
      {"measurement": "binding", "setting": "[3]", "value": "binds"}
    ]},
    {"binder": "PRIM2 (protein, UniProt P49643 1-509) MEFSGRKWRKLRLAGDQRNASYPHCLQFYLQPPSENISLIEFENLAIDRVKLLKSVENLGVSYVKGTEQYQSKLESELRKLKFSYRENLEDEYEPRRRDHISHFILRLAYCQSEELRRWFIQQEMDLLRFRFSILPKDKIQDFLKDSQLQFEAISDEEKTLREQEIVASSPSLSGLKLGFESIYKIPFADALDLFRGRKVYLEDGFAYVPLKDIVAIILNEFRAKLSKALALTARSLPAVQSDERLQPLLNHLSHSYTGQDYSTQGNVGKISLDQIDLLSTKSFPPCMRQLHKALRENHHLRHGGRMQYGLFLKGIGLTLEQALQFWKQEFIKGKMDPDKFDKGYSYNIRHSFGKEGKRTDYTPFSCLKIILSNPPSQGDYHGCPFRHSDPELLKQKLQSYKISPGGISQILDLVKGTHYQVACQKYFEMIHNVDDCGFSLNHPNQFFCESQRILNGGKDIKKEPIQPETPQPKPSVQKTKDASSALASLNSSLEMDMEGLEDYFSEDS", "values": [
      {"measurement": "binding", "setting": "[2]", "value": "binds"},
      {"measurement": "binding", "setting": "[3]", "value": "binds"}
    ]},
    {"binder": "CLCC1 (protein, UniProt Q96S66 19-551) HDDDWIDPTDMLNYDAASGTMRKSQAKYGISGEKDVSPDLSCADEISECYHKLDSLTYKIDECEKKKREDYESQSNPVFRRYLNKILIEAGKLGLPDENKGDMHYDAEIILKRETLLEIQKFLNGEDWKPGALDDALSDILINFKFHDFETWKWRFEDSFGVDPYNVLMVLLCLLCIVVLVATELWTYVRWYTQLRRVLIISFLFSLGWNWMYLYKLAFAQHQAEVAKMEPLNNVCAKKMDWTGSIWEWFRSSWTYKDDPCQKYYELLLVNPIWLVPPTKALAVTFTTFVTEPLKHIGKGTGEFIKALMKEIPALLHLPVLIIMALAILSFCYGAGKSVHVLRHIGGPESEPPQALRPRDRRRQEEIDYRPDGGAGDADFHYRGQMGPTEQGPYAKTYEGRREILRERDVDLRFQTGNKSPEVLRAFDVPDAEAREHPTVVPSHKSPVLDTKPKETGGILGEGTPKESSTESSQSAKPVSGQDTSGNTEGSPAAEKAQLKSEAAGSPDQGSTYSPARGVAGPRGQDPVSSPCG", "values": [
      {"measurement": "binding", "setting": "[4]", "value": "binds"}
    ]},
    {"binder": "THOC1 (protein, UniProt Q96FV9 1-657) MSPTPPLFSLPEARTRFTKSTREALNNKNIKPLLSTFSQVPGSENEKKCTLDQAFRGILEEEIINHSSCENVLAIISLAIGGVTEGICTASTPFVLLGDVLDCLPLDQCDTIFTFVEKNVATWKSNTFYSAGKNYLLRMCNDLLRRLSKSQNTVFCGRIQLFLARLFPLSEKSGLNLQSQFNLENVTVFNTNEQESTLGQKHTEDREEGMDVEEGEMGDEEAPTTCSIPIDYNLYRKFWSLQDYFRNPVQCYEKISWKTFLKYSEEVLAVFKSYKLDDTQASRKKMEELKTGGEHVYFAKFLTSEKLMDLQLSDSNFRRHILLQYLILFQYLKGQVKFKSSNYVLTDEQSLWIEDTTKSVYQLLSENPPDGERFSKMVEHILNTEENWNSWKNEGCPSFVKERTSDTKPTRIIRKRTAPEDFLGKGPTKKILMGNEELTRLWNLCPDNMEACKSETREHMPTLEEFFEEAIEQADPENMVENEYKAVNNSNYGWRALRLLARRSPHFFQPTNQQFKSLPEYLENMVIKLAKELPPPSEEIKTGEDEDEEDNDALLKENESPDVRRDKPVTGEQIEVFANKLGEQWKILAPYLEMKDSEIRQIECDSEDMKMRAKQLLVAWQDQEGVHATPENLINALNKSGLSDLAESLTNDNETNS", "values": [
      {"measurement": "binding", "setting": "[5]", "value": "binds"}
    ]},
    {"binder": "THOC6 (protein, UniProt Q86W42 1-341) MERAVPLAVPLGQTEVFQALQRLHMTIFSQSVSPCGKFLAAGNNYGQIAIFSLSSALSSEAKEESKKPVVTFQAHDGPVYSMVSTDRHLLSAGDGEVKAWLWAEMLKKGCKELWRRQPPYRTSLEVPEINALLLVPKENSLILAGGDCQLHTMDLETGTFTRVLRGHTDYIHCLALRERSPEVLSGGEDGAVRLWDLRTAKEVQTIEVYKHEECSRPHNGRWIGCLATDSDWMVCGGGPALTLWHLRSSTPTTIFPIRAPQKHVTFYQDLILSAGQGRCVNQWQLSGELKAQVPGSSPGLLSLSLNQQPAAPECKVLTAAGNSCRVDVFTNLGYRAFSLSF", "values": [
      {"measurement": "binding", "setting": "[5]", "value": "binds"}
    ]},
    {"binder": "DVL1 (protein, UniProt O14640 1-695) MAETKIIYHMDEEETPYLVKLPVAPERVTLADFKNVLSNRPVHAYKFFFKSMDQDFGVVKEEIFDDNAKLPCFNGRVVSWLVLAEGAHSDAGSQGTDSHTDLPPPLERTGGIGDSRPPSFHPNVASSRDGMDNETGTESMVSHRRERARRRNREEAARTNGHPRGDRRRDVGLPPDSASTALSSELESSSFVDSDEDGSTSRLSSSTEQSTSSRLIRKHKRRRRKQRLRQADRASSFSSITDSTMSLNIVTVTLNMERHHFLGISIVGQSNDRGDGGIYIGSIMKGGAVAADGRIEPGDMLLQVNDVNFENMSNDDAVRVLREIVSQTGPISLTVAKCWDPTPRSYFTVPRADPVRPIDPAAWLSHTAALTGALPRYGTSPCSSAVTRTSSSSLTSSVPGAPQLEEAPLTVKSDMSAVVRVMQLPDSGLEIRDRMWLKITIANAVIGADVVDWLYTHVEGFKERREARKYASSLLKHGFLRHTVNKITFSEQCYYVFGDLCSNLATLNLNSGSSGTSDQDTLAPLPHPAAPWPLGQGYPYQYPGPPPCFPPAYQDPGFSYGSGSTGSQQSEGSKSSGSTRSSRRAPGREKERRAAGAGGSGSESDHTAPSGVGSSWRERPAGQLSRGSSPRSQASATAPGLPPPHPTTKAYTVVGGPPGGPPVRELAAVPPELTGSRQSFQKAMGNPCEFFVDIM", "values": [
      {"measurement": "binding", "setting": "[5]", "value": "binds"}
    ]}
  ]
}
